Reference: the supplement of paper PMC8728848
The list shows a part of the results.

Experiments:
Assay in all cases: glycan array binding signal (z-score within array); higher = stronger binding
Conditions in all cases: glycan notation: IUPAC condensed, linker removed
[1] = target: Neu5Ac(a2-6)Gal(b1-4)GlcNAc(b1-3)Gal(b1-4)GlcNAc(b1-3)GalNAc
How it was run: (§1)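 Glycan array data came from 3228 arrays in the Consortium for Functional Glycomics database, and only arrays with an available protein sequence were kept. Glycan names were put into IUPAC-condensed notation, and columns mapping to the same glycan were averaged. The binding signal is a within-array Z-score, averaged across arrays of one protein sequence run at different concentrations or buffers and across linkers. A negative Z-score can be read as non-binding.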

[2] = target: Neu5Ac(a2-6)Gal(b1-4)GlcNAc(b1-3)Gal(b1-4)GlcNAc(b1-3)[Neu5Ac(a2-6)Gal(b1-4)GlcNAc(b1-3)Gal(b1-4)GlcNAc(b1-6)]GalNAc
How it was run: as §1

[3] = target: Neu5Ac(a2-6)Gal(b1-4)GlcNAc(b1-3)Gal(b1-4)GlcNAc(b1-6)[Gal(b1-3)]GalNAc
How it was run: as §1

[4] = target: Neu5Ac(a2-6)Gal(b1-4)GlcNAc(b1-3)Gal(b1-4)[Fuc(a1-3)]GlcNAc(b1-3)Gal(b1-4)[Fuc(a1-3)]GlcNAc
How it was run: as §1

[5] = target: Neu5Ac(a2-6)Gal(b1-4)GlcNAc(b1-3)GalNAc
How it was run: as §1

[6] = target: Neu5Ac(a2-6)Gal(b1-4)GlcNAc(b1-3)[Neu5Ac(a2-6)Gal(b1-4)GlcNAc(b1-6)]GalNAc
How it was run: as §1

[7] = target: Neu5Ac(a2-6)Gal(b1-4)GlcNAc(b1-6)GalNAc
How it was run: as §1

[8] = target: Neu5Ac(a2-6)Gal(b1-4)GlcNAc(b1-6)[Gal(b1-3)GlcNAc(b1-3)]Gal(b1-4)Glc
How it was run: as §1

[9] = target: Neu5Ac(a2-6)Gal(b1-4)GlcNAc(b1-6)[Gal(b1-3)]GalNAc
How it was run: as §1

[10] = target: Neu5Ac(a2-6)Gal(b1-4)GlcNAc6S
How it was run: as §1

Neu5Ac(a2-6)GalNAc = target: Neu5Ac(a2-6)GalNAc
How it was run: as §1

[11] = target: Neu5Ac(a2-6)GalNAc(b1-4)GlcNAc
How it was run: as §1

[12] = target: Neu5Ac(a2-6)GalNAc(b1-4)GlcNAc6S
How it was run: as §1

[13] = target: Neu5Ac(a2-6)GlcNAc(b1-4)GlcNAc
How it was run: as §1

[14] = target: Neu5Ac(a2-6)GlcNAc(b1-4)GlcNAc(b1-4)GlcNAc
How it was run: as §1

Neu5Ac(a2-8)Neu5Ac = target: Neu5Ac(a2-8)Neu5Ac
How it was run: as §1

[15] = target: Neu5Ac(a2-8)Neu5Ac(a2-3)Gal(b1-3)GalNAc(b1-4)[Neu5Ac(a2-3)]Gal(b1-4)Glc
How it was run: as §1

[16] = target: Neu5Ac(a2-8)Neu5Ac(a2-3)Gal(b1-3)GalNAc(b1-4)[Neu5Ac(a2-8)Neu5Ac(a2-3)]Gal(b1-4)Glc
How it was run: as §1

[17] = target: Neu5Ac(a2-8)Neu5Ac(a2-3)Gal(b1-4)Glc
How it was run: as §1

[18] = target: Neu5Ac(a2-8)Neu5Ac(a2-3)Gal(b1-4)GlcNAc
How it was run: as §1

[19] = target: Neu5Ac(a2-8)Neu5Ac(a2-3)[Gal(b1-3)GalNAc(b1-4)]Gal(b1-4)Glc
How it was run: as §1

[20] = target: Neu5Ac(a2-8)Neu5Ac(a2-3)[GalNAc(b1-4)]Gal(b1-4)Glc
How it was run: as §1

[21] = target: Neu5Ac(a2-8)Neu5Ac(a2-8)Neu5Ac
How it was run: as §1

[22] = target: Neu5Ac(a2-8)Neu5Ac(a2-8)Neu5Ac(a2-3)Gal(b1-4)Glc
How it was run: as §1

[23] = target: Neu5Ac(a2-8)Neu5Ac(a2-8)Neu5Ac(a2-3)[Gal(b1-3)GalNAc(b1-4)]Gal(b1-4)Glc
How it was run: as §1

[24] = target: Neu5Ac(a2-8)Neu5Ac(a2-8)Neu5Ac(a2-3)[GalNAc(b1-4)]Gal(b1-4)Glc
How it was run: as §1

[25] = target: Neu5Ac(a2-8)Neu5Ac(a2-8)Neu5Ac(a2-8)Neu5Ac(a2-3)[GalNAc(b1-4)]Gal(b1-4)Glc
How it was run: as §1

[26] = target: Neu5Ac(a2-8)Neu5Gc(a2-3)Gal(b1-4)GlcNAc
How it was run: as §1

[27] = target: Neu5Ac(b2-6)Gal(b1-4)GlcNAc
How it was run: as §1

Neu5Ac(b2-6)GalNAc = target: Neu5Ac(b2-6)GalNAc
How it was run: as §1

[28] = target: Neu5Ac9Ac(a2-3)Gal(b1-3)GlcNAc
How it was run: as §1

[29] = target: Neu5Ac9Ac(a2-3)Gal(b1-4)GlcNAc
How it was run: as §1

[30] = target: Neu5Ac9Ac(a2-6)Gal(b1-4)GlcNAc
How it was run: as §1

[31] = target: Neu5Gc(a2-3)Gal(b1-3)GlcNAc
How it was run: as §1

[32] = target: Neu5Gc(a2-3)Gal(b1-3)[Fuc(a1-4)]GlcNAc
How it was run: as §1

Neu5Gc(a2-3)Gal(b1-4)Glc = target: Neu5Gc(a2-3)Gal(b1-4)Glc
How it was run: as §1

[33] = target: Neu5Gc(a2-3)Gal(b1-4)GlcNAc
How it was run: as §1

[34] = target: Neu5Gc(a2-3)Gal(b1-4)GlcNAc(b1-3)Gal(b1-4)GlcNAc(b1-2)Man(a1-3)[Neu5Gc(a2-3)Gal(b1-4)GlcNAc(b1-3)Gal(b1-4)GlcNAc(b1-2)Man(a1-6)]Man(b1-4)GlcNAc(b1-4)GlcNAc
How it was run: as §1

[35] = target: Neu5Gc(a2-3)Gal(b1-4)[Fuc(a1-3)]GlcNAc
How it was run: as §1

[36] = target: Neu5Gc(a2-6)Gal(b1-4)GlcNAc
How it was run: as §1

Neu5Gc(a2-6)GalNAc = target: Neu5Gc(a2-6)GalNAc
How it was run: as §1

[37] = target: Neu5Gc(a2-8)Neu5Ac(a2-3)Gal(b1-4)GlcNAc
How it was run: as §1

[38] = target: Neu5Gc(a2-8)Neu5Gc(a2-3)Gal(b1-4)GlcNAc
How it was run: as §1

[39] = target: Neu5Gc(a2-8)Neu5Gc(a2-3)Gal(b1-4)GlcNAc(b1-3)Gal(b1-4)GlcNAc
How it was run: as §1

[40] = target: Neu5Gc(a2-8)Neu5Gc(a2-6)Gal(b1-4)GlcNAc
How it was run: as §1

B1: OS9 (Arabidopsis thaliana) (protein)
chain: MRGSHHHHHHGMASMTGGQQMGRDLYDDDDKSRLQIFPAHLVGTFSRNNREPKYKIEFLPEDSPFHPGDNLESMVMLDKHGNRFLCYLPKEEKATSGWTSSQQNISTVMMETQQLVKLKTPDELLQPLSEKCLFRQEGWWSYEFCHQKYVRQLHVEDENKIVQEFFLGTFDPEATAAFNQTVSDASTDASQRYHSHVYTNGTTCDLTGSPREVEVRFVCAETRAMVTSITELSTCKYALTVQCPTLCKHPLFQLEKPVSHTIHCNAIPVEEDATRNKEEQAVDESPKMIADS
glycan array binding signal (z-score) [1]: 0.784 | glycan array binding signal (z-score) [2]: 1.02 | glycan array binding signal (z-score) [3]: 0.065 | glycan array binding signal (z-score) [4]: -0.53 | glycan array binding signal (z-score) [5]: -0.297 | glycan array binding signal (z-score) [6]: -0.234 | glycan array binding signal (z-score) [7]: -0.911 | glycan array binding signal (z-score) [8]: -0.32 | glycan array binding signal (z-score) [9]: -0.789 | glycan array binding signal (z-score) [10]: 0.134 | glycan array binding signal (z-score) (Neu5Ac(a2-6)GalNAc): -0.739 | glycan array binding signal (z-score) [11]: 0.735 | glycan array binding signal (z-score) [12]: 1.14 | glycan array binding signal (z-score) [13]: -0.464 | glycan array binding signal (z-score) [14]: 0.614 | glycan array binding signal (z-score) (Neu5Ac(a2-8)Neu5Ac): 0.523 | glycan array binding signal (z-score) [15]: 0.308 | glycan array binding signal (z-score) [16]: -0.384 | glycan array binding signal (z-score) [17]: -0.375 | glycan array binding signal (z-score) [18]: 0.95 | glycan array binding signal (z-score) [19]: 1.47 | glycan array binding signal (z-score) [20]: -1.26 | glycan array binding signal (z-score) [21]: 1.33 | glycan array binding signal (z-score) [22]: -0.496 | glycan array binding signal (z-score) [23]: -0.949 | glycan array binding signal (z-score) [24]: 0.256 | glycan array binding signal (z-score) [25]: -0.26 | glycan array binding signal (z-score) [26]: 1.86 | glycan array binding signal (z-score) [27]: -0.082 | glycan array binding signal (z-score) (Neu5Ac(b2-6)GalNAc): -0.811 | glycan array binding signal (z-score) [28]: 1.19 | glycan array binding signal (z-score) [29]: -1.12 | glycan array binding signal (z-score) [30]: 0.706 | glycan array binding signal (z-score) [31]: -0.246 | glycan array binding signal (z-score) [32]: -1.06 | glycan array binding signal (z-score) (Neu5Gc(a2-3)Gal(b1-4)Glc): -1.01 | glycan array binding signal (z-score) [33]: 0.75 | glycan array binding signal (z-score) [34]: -0.725 | glycan array binding signal (z-score) [35]: -0.962 | glycan array binding signal (z-score) [36]: -0.756 | glycan array binding signal (z-score) (Neu5Gc(a2-6)GalNAc): -0.193 | glycan array binding signal (z-score) [37]: -0.74 | glycan array binding signal (z-score) [38]: -0.682 | glycan array binding signal (z-score) [39]: -0.569 | glycan array binding signal (z-score) [40]: 0.458
